In publication doi:10.1101/609503:
Like-named read-outs stand apart in the source and are kept apart here. These are yes or no findings as the source states them, for the method shown. Binding seen in cells or lysates may run through a third protein. A yes stands for co-enrichment or nearness to the bait. Other partners may have been found.

Amino acid sequences for entries named in this document (tags omitted). Residues count along the entry.
UniProt P06136: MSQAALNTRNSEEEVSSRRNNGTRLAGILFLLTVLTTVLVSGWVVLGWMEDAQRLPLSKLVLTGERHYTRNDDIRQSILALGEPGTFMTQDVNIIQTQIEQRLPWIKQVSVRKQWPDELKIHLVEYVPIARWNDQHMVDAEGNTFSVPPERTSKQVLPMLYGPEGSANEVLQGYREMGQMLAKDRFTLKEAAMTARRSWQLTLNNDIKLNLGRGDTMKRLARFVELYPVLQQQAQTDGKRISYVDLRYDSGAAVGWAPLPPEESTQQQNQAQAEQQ
UniProt P24228, residues 21-477: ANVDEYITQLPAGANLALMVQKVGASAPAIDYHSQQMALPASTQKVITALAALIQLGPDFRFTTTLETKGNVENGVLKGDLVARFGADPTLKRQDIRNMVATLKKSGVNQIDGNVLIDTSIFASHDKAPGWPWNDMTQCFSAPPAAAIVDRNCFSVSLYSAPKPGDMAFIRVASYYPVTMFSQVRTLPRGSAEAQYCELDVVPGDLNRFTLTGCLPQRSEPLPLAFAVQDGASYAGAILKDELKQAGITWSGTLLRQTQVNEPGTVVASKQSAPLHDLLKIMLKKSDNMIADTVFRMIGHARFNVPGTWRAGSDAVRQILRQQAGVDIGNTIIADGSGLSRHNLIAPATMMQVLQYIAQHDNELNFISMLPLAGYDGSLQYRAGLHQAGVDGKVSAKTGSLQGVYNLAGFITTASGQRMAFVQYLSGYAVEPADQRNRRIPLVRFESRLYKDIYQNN

Key:
[1] = target: T1, NlpI (soluble version, residues 19-294) (E. coli) (UniProt P0AFB1); test: affinity purification with mass spectrometry
T1 sequence (chain, NT647 RED-NHS dye on amines where used as the labelled partner (fl-NlpI)): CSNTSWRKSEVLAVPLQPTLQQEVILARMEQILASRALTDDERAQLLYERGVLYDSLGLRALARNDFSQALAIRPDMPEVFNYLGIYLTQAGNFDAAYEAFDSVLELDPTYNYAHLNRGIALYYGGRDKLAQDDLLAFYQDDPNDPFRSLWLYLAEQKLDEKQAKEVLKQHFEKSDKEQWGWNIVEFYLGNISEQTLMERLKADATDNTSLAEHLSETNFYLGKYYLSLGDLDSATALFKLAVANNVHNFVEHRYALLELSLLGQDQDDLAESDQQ

[2] = target: T1, NlpI (soluble version, residues 19-294) (E. coli); test: affinity purification with mass spectrometry; remark: listed apart in the source

binding [1] | binding [2] | Substance
binds | binds | FtsQ (endogenous, membrane extract) (from UniProt P06136 1-276)
binds |  | PBP4 (endogenous, membrane extract) (from UniProt P24228 21-477) (enzyme)
